According to PMC12167799, “The role of human Shu complex in ATP-dependent regulation of RAD51 filaments during homologous recombination–associated DNA damage response” (The Journal of Biological Chemistry, 2025):

Legend:
Assay in all cases: SEC; co-purification: 6xHis-TEV-SWSAP1 and untagged hSWS1 co-expressed in insect cells, Ni-HiTrap FF, tag cleaved, then gel filtration on Superdex 200 10/300 GL and SDS-PAGE
[1] = target: human SWSAP1 D96A (Walker B mutant) (human)
[2] = target: human SWS1-associated protein 1 (SWSAP1), wildtype (human)
[3] = target: human SWSAP1 K18A (Walker A mutant) (human)

Measured: binding

B1: human SWS1 (protein, UniProt Q19AV6 1-140)
chain: MAVVLPAVVEELLSEMAAAVQESARIPDEYLLSLKFLFGSSATQALDLVDRQSITLISSPSGRRVYQVLGSSSKTYTCLASCHYCSCPAFAFSVLRKSDSILCKHLLAVYLSQVMRTCQQLSVSDKQLTDILLMEKKQEA
binds: [1] | [2] | [3]

Results are given in words; binding and its absence hold for the method and conditions named. Binding seen in cells or lysates may run through a third protein. Binding calls can cover weak binding; strength is not graded here.
